Test results: the supplement of paper PMC4862054
Small differences around the control level are noise.

Assays:
Assay in all cases: normalised response (% of control), CellTox Green; higher = less cell death (100 = DMSO, 0 = benzethonium chloride kill control)
Conditions in all cases: incubation time: 72 h
BT-474 = tested on: BT-474
Protocol: (§1)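 DSRT, 72 h incubation, CellTox Green / CellTiter-Glo readout. Signal is normalised to DMSO and benzethonium chloride controls. Value is the normalised response at the lowest tested concentration.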

BT-549 = tested on: BT-549
Protocol: as §1

CAL-120 = tested on: CAL-120
Protocol: as §1

CAL-148 = tested on: CAL-148
Protocol: as §1

CAL-51 = tested on: CAL-51
Protocol: as §1

CAL-85-1 = tested on: CAL-85-1
Protocol: as §1

DU-4475 = tested on: DU-4475
Protocol: as §1

HCC1143 = tested on: HCC1143
Protocol: as §1

HCC1599 = tested on: HCC1599
Protocol: as §1

HCC1937 = tested on: HCC1937
Protocol: as §1

HDQ-P1 = tested on: HDQ-P1
Protocol: as §1

Hs578T = tested on: Hs578T
Protocol: as §1

MCF-10A = tested on: MCF-10A
Protocol: as §1

MDA-MB-231 = tested on: MDA-MB-231
Protocol: as §1

MDA-MB-453 = tested on: MDA-MB-453
Protocol: as §1

MDA-MB-468 = tested on: MDA-MB-468
Protocol: as §1

MFM-223 = tested on: MFM-223
Protocol: as §1

MDA-MB-436 = tested on: MDA-MB-436
Protocol: as §1

## CC(C)(C)Cn1c(N)nc2ccc(-c3[nH]c(C(C)(C)C)nc3-c3ccc(F)cc3)nc21 (1 nM)
BT-474
  normalised response: 98.4%
BT-549
  normalised response: 88.4%
CAL-120
  normalised response: 105%
CAL-148
  normalised response: 104%
CAL-51
  normalised response: 113%
CAL-85-1
  normalised response: 101%
DU-4475
  normalised response: 105%
HCC1143
  normalised response: 67.5%
HCC1599
  normalised response: 102%
HCC1937
  normalised response: 109%
HDQ-P1
  normalised response: 91.6%
Hs578T
  normalised response: 115%
MCF-10A
  normalised response: 110%
MDA-MB-231
  normalised response: 106%
MDA-MB-453
  normalised response: 105%
MDA-MB-468
  normalised response: 63.9%
MFM-223
  normalised response: 103%

## CC/C(=C(\c1ccc(O)cc1)c1ccc(OCCN(C)C)cc1)c1ccccc1 [4-hydroxytamoxifen] (1 nM)
BT-474
  normalised response: 99.7%
BT-549
  normalised response: 98.8%
CAL-120
  normalised response: 106%
CAL-148
  normalised response: 70.9%
CAL-51
  normalised response: 113%
CAL-85-1
  normalised response: 91.2%
DU-4475
  normalised response: 112%
HCC1143
  normalised response: 99.7%
HCC1599
  normalised response: 117%
HCC1937
  normalised response: 106%
HDQ-P1
  normalised response: 99%
Hs578T
  normalised response: 102%
MCF-10A
  normalised response: 96.3%
MDA-MB-231
  normalised response: 106%
MDA-MB-436
  normalised response: 98.4%
MDA-MB-453
  normalised response: 105%
MDA-MB-468
  normalised response: 104%
MFM-223
  normalised response: 69%

## COc1ccc(-c2ccc3c(N4CCOC[C@@H]4C)nc(N4CCOC[C@@H]4C)nc3n2)cc1CO [AZD8055] (1 nM)
BT-474
  normalised response: 95.8%
BT-549
  normalised response: 102%
CAL-120
  normalised response: 98.6%
CAL-148
  normalised response: 100%
CAL-51
  normalised response: 120%
CAL-85-1
  normalised response: 98.3%
DU-4475
  normalised response: 96.7%
HCC1143
  normalised response: 85.1%
HCC1599
  normalised response: 86.5%
HCC1937
  normalised response: 106%
HDQ-P1
  normalised response: 92.3%
Hs578T
  normalised response: 106%
MCF-10A
  normalised response: 97.8%
MDA-MB-231
  normalised response: 103%
MDA-MB-436
  normalised response: 77.8%
MDA-MB-453
  normalised response: 104%

## Oc1ncnc2[nH]ncc12 [Allopurinol] (1 nM)
BT-474
  normalised response: 102%
BT-549
  normalised response: 101%
CAL-120
  normalised response: 103%
CAL-148
  normalised response: 102%
CAL-51
  normalised response: 117%
CAL-85-1
  normalised response: 101%
DU-4475
  normalised response: 103%
HCC1143
  normalised response: 79.8%
HCC1599
  normalised response: 109%
HCC1937
  normalised response: 86.9%
HDQ-P1
  normalised response: 86.2%
Hs578T
  normalised response: 98.2%
MCF-10A
  normalised response: 107%
MDA-MB-231
  normalised response: 113%
MDA-MB-453
  normalised response: 108%
MDA-MB-468
  normalised response: 77.1%
MFM-223
  normalised response: 85.4%

## C=C(c1ccc(C(=O)O)cc1)c1cc2c(cc1C)C(C)(C)CCC2(C)C [Bexarotene] (1 nM)
BT-474
  normalised response: 103%
BT-549
  normalised response: 99.8%
CAL-120
  normalised response: 83.1%
CAL-148
  normalised response: 103%
CAL-51
  normalised response: 105%
CAL-85-1
  normalised response: 112%
DU-4475
  normalised response: 99.3%
HCC1143
  normalised response: 123%
HCC1599
  normalised response: 99.7%
HCC1937
  normalised response: 61.9%
HDQ-P1
  normalised response: 95.5%
Hs578T
  normalised response: 80%
MCF-10A
  normalised response: 107%
MDA-MB-231
  normalised response: 93.3%
MDA-MB-436
  normalised response: 85.7%
MDA-MB-453
  normalised response: 103%
MDA-MB-468
  normalised response: 78.1%
MFM-223
  normalised response: 94%

## Cc1cc2c(F)c(Oc3ncnn4cc(OC[C@@H](C)O)c(C)c34)ccc2[nH]1 [Brivanib] (0.1 nM)
BT-474
  normalised response: 102%
BT-549
  normalised response: 99.4%
CAL-120
  normalised response: 100%
CAL-148
  normalised response: 101%
CAL-51
  normalised response: 120%
CAL-85-1
  normalised response: 99.2%
DU-4475
  normalised response: 106%
HCC1143
  normalised response: 115%
HCC1599
  normalised response: 108%
HCC1937
  normalised response: 91.7%
HDQ-P1
  normalised response: 87.8%
Hs578T
  normalised response: 111%
MCF-10A
  normalised response: 106%
MDA-MB-231
  normalised response: 88.2%
MDA-MB-436
  normalised response: 97.3%
MDA-MB-453
  normalised response: 102%
MFM-223
  normalised response: 84.9%

## CC(=O)O[C@]1(C(C)=O)CC[C@H]2[C@@H]3C=C(C)C4=CC(=O)CC[C@]4(C)[C@H]3CC[C@@]21C [Megestrol acetate] (1 nM)
BT-474
  normalised response: 97.9%
BT-549
  normalised response: 103%
CAL-120
  normalised response: 99.6%
CAL-148
  normalised response: 94.8%
CAL-51
  normalised response: 108%
CAL-85-1
  normalised response: 90.7%
DU-4475
  normalised response: 100%
HCC1143
  normalised response: 81.6%
HCC1599
  normalised response: 104%
HCC1937
  normalised response: 119%
HDQ-P1
  normalised response: 80.2%
Hs578T
  normalised response: 78.2%
MCF-10A
  normalised response: 107%
MDA-MB-231
  normalised response: 100%
MDA-MB-436
  normalised response: 52%
MDA-MB-468
  normalised response: 102%
MFM-223
  normalised response: 94.1%

## CNC(=O)c1cc(Oc2ccc(NC(=O)Nc3cc(C(C)(C)C)nn3-c3ccc4ncccc4c3)c(F)c2)ccn1 [Rebastinib] (0.1 nM)
BT-474
  normalised response: 95.5%
BT-549
  normalised response: 99%
CAL-120
  normalised response: 96.2%
CAL-148
  normalised response: 100%
CAL-51
  normalised response: 119%
CAL-85-1
  normalised response: 110%
DU-4475
  normalised response: 105%
HCC1143
  normalised response: 119%
HCC1599
  normalised response: 99.9%
HCC1937
  normalised response: 104%
HDQ-P1
  normalised response: 81.5%
MCF-10A
  normalised response: 110%
MDA-MB-231
  normalised response: 114%
MDA-MB-453
  normalised response: 50%
MFM-223
  normalised response: 101%

## COc1cc2nccc(Oc3ccc(NC(=O)Nc4cc(C)on4)c(Cl)c3)c2cc1OC [Tivozanib] (1 nM)
BT-474
  normalised response: 102%
BT-549
  normalised response: 96.6%
CAL-120
  normalised response: 92.9%
CAL-148
  normalised response: 99.1%
CAL-51
  normalised response: 109%
CAL-85-1
  normalised response: 106%
DU-4475
  normalised response: 94.2%
HCC1143
  normalised response: 115%
HCC1599
  normalised response: 92.8%
HCC1937
  normalised response: 77.8%
Hs578T
  normalised response: 79.7%
MCF-10A
  normalised response: 97.6%
MDA-MB-231
  normalised response: 105%
MDA-MB-436
  normalised response: 83.6%
MDA-MB-453
  normalised response: 108%
MDA-MB-468
  normalised response: 76.1%
MFM-223
  normalised response: 100%
